*1 amine or outer side, *2 acyl side, *3 side chain or, on linkers, in order; H or OH if unused. Where a SMILES comes first, the peptide text is derived from it. The star is where a group is joined. X1 = Cc1ccccc1C1=C2C=CC(=N)C=C2[Si](C)(C)c2cc(N*)ccc21; Suc = O=C(CCC(=O)[*:2])[*:1]
Tested on: HeLa cells
Assay: Intracellular localization of dye (costaining with LysoTracker)
Assay type: cell-based
Conditions: costaining with LysoTracker Green DND 26 (50 nM), Suc-LLVY-SiR600 2 μM, 2Me SiR600 50 μM

| Molecule | intracellular localization |
| --- | --- |
| 2Me SiR600 [reference compound] | accumulates in lysosomes in cells |
| Cc1ccccc1C1=C2C=CC(=N)C=C2[Si](C)(C)c2cc(NC(=O)[C@H](Cc3ccc(O)cc3)NC(=O)[C@@H](NC(=O)[C@H](CC(C)C)NC(=O)[C@H](CC(C)C)NC(=O)CCC(=O)O)C(C)C)ccc21 [Suc-LLVY-SiR600] (Suc-LLVY-X1) | shows intracellular localization in similar fashion to the lysosomal localization dye LysoTracker |

From US20160102336A1, “FLUORESCENT PROBE FOR DETECTING ACTIVITY OF CALPAIN” (THE UNIVERSITY OF TOKYO, priority 2013, published 2016)
